Laboratory results: patent US10000555B2 (Seattle Genetics, Inc., priority 2005, dated 2018)

Experiment: general procedure: Fmoc solid-phase peptide synthesis; 2-chlorotrityl resin; HATU/DIEA
Conditions: whole synthesis, TFA salt; for final HPLC purity: Reversed-phase HPLC analysis; for final HPLC purity / isolated yield: scale of the general procedure 0.340 mmol

Substance | final HPLC purity [%] | isolated mass [mg] | isolated yield [%]
MeVal-Val-Dil-Dap-2-Chloro-Phe | 96 | 200 | 67
MeVal-Val-Dil-Dap-3-(3-pyridyl)-L-Ala-OH | 98 | 388.6 | 94
MeVal-Val-Dil-Dap-3-cyclohexyl-L-Ala-OH | 98 | 343.4 | 99
MeVal-Val-Dil-Dap-Boc-p-Amino-Phe-OH | 98 | 210.6 | 48
MeVal-Val-Dil-Dap-Glu(OtBu)-OH | 98 | 219.4 | 55
MeVal-Val-Dil-Dap-L-4-Thiazolylalanine | 98 | 357 | 87
MeVal-Val-Dil-Dap-L-β-homophe-OH | 98 | 282.9 | 99
MeVal-Val-Dil-Dap-Leu-OH | 98 | 217.4 | 62
MeVal-Val-Dil-Dap-Me-Phe-OH | 98 | 62.3 | 26
MeVal-Val-Dil-Dap-Met-OH | 98 | 90.7 | 82
MeVal-Val-Dil-Dap-Tic-OH | 98 | 178.40 | 55
MeVal-Val-Dil-Dap-Trp(Boc)-OH | 98 | 151.7 | 42
